± gives the standard deviation of the averaged measurements. Most values lie at the level of the controls, where differences are scatter.
Tests used:
Assay in all cases: level (log10 ratio to DMSO vehicle control); higher = higher biomarker level / cell amount than vehicle control
[1] = compound: O=C(O)C(F)(F)C(F)(F)C(F)(F)C(F)(F)C(F)(F)C(F)(F)C(F)(F)C(F)(F)Cl [9-Chloro-perfluorononanoic acid]; conditions: in DMSO
Protocol: (§1)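 BioMAP Diversity Plus panel of 12 human primary cell co-culture systems (3C, 4H, LPS, SAg, BT, BF4T, BE3C, CASM3C, HDF3CGF, KF3CT, MyoF, Mphg). Compounds were added 1 h before stimulation and left for 24 h (MyoF 48 h; BT 72 h for soluble read-outs or 6 d for IgG). Biomarkers were read by ELISA, cytotoxicity by SRB, PBMC viability and proliferation by Alamar Blue. Each well value was divided by the mean of 8 DMSO control wells on the same plate and log10 transformed; duplicate blinded samples were tested at 4 concentrations.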

Nonafluoropentanamide = compound: NC(=O)C(F)(F)C(F)(F)C(F)(F)C(F)(F)F [Nonafluoropentanamide]; conditions: 2200 nM; in DMSO
Protocol: as §1

Tetrafluorosuccinic acid = compound: O=C(O)C(F)(F)C(F)(F)C(=O)O [Tetrafluorosuccinic acid]; conditions: 2200 nM; in DMSO
Protocol: as §1

[2] = compound: OCCC(F)(F)C(F)(F)C(F)(F)C(F)(F)F [4:2 Fluorotelomer alcohol]; conditions: 2200 nM; in DMSO
Protocol: as §1

[3] = compound: O=S(=O)(O)C(F)(F)C(F)(F)OC(F)(F)C(F)(F)F [Perfluoro(2-ethoxyethane)sulfonic acid]; conditions: 2200 nM; in DMSO
Protocol: as §1

[4] = compound: C=C(C)C(=O)OCCC(F)(F)C(F)(F)C(F)(F)C(F)(F)C(F)(C(F)(F)F)C(F)(F)F [(Perfluoro-5-methylhexyl)ethyl 2-methylprop-2-enoate]; conditions: in DMSO
Protocol: as §1

[5] = compound: C=C(C)C(=O)OCCC(F)(F)C(F)(F)C(F)(F)C(F)(F)C(F)(F)C(F)(F)C(F)(F)C(F)(F)F [8:2 Fluorotelomer methacrylate]; conditions: in DMSO
Protocol: as §1

Octafluoroadipamide = compound: NC(=O)C(F)(F)C(F)(F)C(F)(F)C(F)(F)C(N)=O [Octafluoroadipamide]; conditions: 2200 nM; in DMSO
Protocol: as §1

[6] = compound: FC(F)(F)C(F)(F)C(F)(F)C(F)(F)C(F)(F)CCI [1-Iodo-1H,1H,2H,2H-perfluoroheptane]; conditions: 2200 nM; in DMSO
Protocol: as §1

[7] = compound: O=S(=O)(O)CCC(F)(F)C(F)(F)C(F)(F)C(F)(F)C(F)(F)C(F)(F)F [6:2 Fluorotelomer sulfonic acid]; conditions: in DMSO
Protocol: as §1

[8] = compound: COC(=O)CCC(F)(F)C(F)(F)C(F)(F)C(F)(F)F [Methyl 2H,2H,3H,3H-perfluoroheptanoate]; conditions: 2200 nM; in DMSO
Protocol: as §1

[9] = compound: NS(=O)(=O)C(F)(F)C(F)(F)C(F)(F)C(F)(F)C(F)(F)C(F)(F)F [Perfluorohexanesulfonamide]; conditions: 2200 nM; in DMSO
Protocol: as §1

[10] = compound: O=C(O)CCC(F)(F)C(F)(F)C(F)(F)C(F)(F)C(F)(F)F [2H,2H,3H,3H-Perfluorooctanoic acid]; conditions: 2200 nM; in DMSO
Protocol: as §1

Perfluoropinacol = compound: OC(C(F)(F)F)(C(F)(F)F)C(O)(C(F)(F)F)C(F)(F)F [Perfluoropinacol]; conditions: in DMSO
Protocol: as §1

Test System	level (log10) ([1]; 2200 nM)	level (log10) ([1]; 6700 nM)	level (log10) ([1]; 20000 nM)	level (log10) (Nonafluoropentanamide)	level (log10) (Tetrafluorosuccinic acid)	level (log10) [2]	level (log10) [3]	level (log10) ([4]; 740 nM)	level (log10) ([4]; 2200 nM)	level (log10) ([4]; 6700 nM)	level (log10) ([4]; 20000 nM)	level (log10) ([5]; 740 nM)	level (log10) ([5]; 2200 nM)	level (log10) (Octafluoroadipamide)	level (log10) [6]	level (log10) ([7]; 2200 nM)	level (log10) ([7]; 6700 nM)	level (log10) ([7]; 20000 nM)	level (log10) ([7]; 60000 nM)	level (log10) [8]	level (log10) [9]	level (log10) [10]	level (log10) (Perfluoropinacol; 2200 nM)	level (log10) (Perfluoropinacol; 6700 nM)	level (log10) (Perfluoropinacol; 20000 nM)
SAg:CXCL8/IL-8	0.024 ± 0.0057	0.0125 ± 0.0078	0.0445 ± 0.0092	0.016 ± 0.0085	-0.016 ± 0.041	0.0075 ± 0.039	0.0325 ± 0.0021	0.015 ± 0.0071	0.077 ± 0.013	0.0115 ± 0.012	0.0405 ± 0.079	0.0025 ± 0.13	-0.0325 ± 0.073	0.0215 ± 0.084	-0.008 ± 0.041	0.017 ± 0.045	-0.012 ± 0.025	0.0325 ± 0.039	0.064 ± 0.03	0.0195 ± 0.057	-0.0015 ± 0.14	0.0065 ± 0.076	0.043 ± 0.055	0.0725 ± 0.029	-0.139 ± 0.041
CASM3C:Serum Amyloid A	-0.014 ± 0.0085	0.001 ± 0.016	0.0285 ± 0.011	0.029 ± 0.037	0.0205 ± 0.046	-0.044 ± 0.071	0.004 ± 0.041	0.0025 ± 0.08	0.005 ± 0.011	-0.0325 ± 0.021	0.025 ± 0.0085	0.026 ± 0.028	-0.011 ± 0.0085	0.001 ± 0.017	0.001 ± 0.05	-0.0055 ± 0.028	0.019 ± 0.014	0.021 ± 0.03	0.017 ± 0.031	0.0095 ± 0.025	0.0075 ± 0.012	0.0155 ± 0.0021	0.0195 ± 0.037	0.0545 ± 0.0078	0.0595 ± 0.015
MyoF:bFGF	0.004 ± 0.018	-0.003 ± 0.023	0.0085 ± 0.011	0.0185 ± 0.028	-0.005 ± 0.011	0.002 ± 0.024	0.02 ± 0.014	-0.0185 ± 0.0021	0.021 ± 0.0057	-0.0015 ± 0.005	0.002 ± 0.0014	0.0025 ± 0.0035	0.0095 ± 0.0064	0.004 ± 0.031	0.0015 ± 0.013	0.007 ± 0.016	-0.0065 ± 0.0078	0.019 ± 0.013	0.0235 ± 0.044	-0.024 ± 0.025	0.0025 ± 0.0078	0.005 ± 0.013	-0.0135 ± 0.011	-0.0075 ± 0.012	-0.0225 ± 0.0092
SAg:CD40	-0.006 ± 0.018	-0.013 ± 0.033	-0.024 ± 0.031	-0.0125 ± 0.023	-0.015 ± 0.016	-0.0185 ± 0.016	0.009 ± 0.0099	0 ± 0.0085	0.0065 ± 0.037	0 ± 0.0071	-0.0275 ± 0.028	-0.012 ± 0.042	-0.018 ± 0.014	-0.0055 ± 0.0064	-0.024 ± 0.038	-0.013 ± 0.041	-0.0275 ± 0.046	-0.0285 ± 0.064	-0.053 ± 0.035	-0.0315 ± 0.021	0.009 ± 0.027	-0.031 ± 0.031	-0.0095 ± 0.0092	-0.021 ± 0.016	-0.146 ± 0.013
BF4T:CCL2/MCP-1	-0.105 ± 0.076	-0.034 ± 0.028	-0.0785 ± 0.044	0.0245 ± 0.025	0.0115 ± 0.019	-0.0305 ± 0.079	0.0455 ± 0.0078	0.0395 ± 0.012	-0.0015 ± 0.00071	0.012 ± 0.011	0.0275 ± 0.005	0.0145 ± 0.03	-0.007 ± 0.023	-0.003 ± 0.047	0.007 ± 0.038	0.041 ± 0.044	0.0035 ± 0.0064	-0.024 ± 0.028	-0.0335 ± 0.069	0.0185 ± 0.042	-0.034 ± 0.0014	0.057 ± 0.025	-0.0005 ± 0.084	0.0435 ± 0.032	-0.0175 ± 0.015
SAg:PBMC Cytotoxicity	0.0155 ± 0.043	0.032 ± 0.028	0.0255 ± 0.032	0 ± 0.0085	0.0305 ± 0.052	-0.006 ± 0.021	0.027 ± 0.021	0.0235 ± 0.021	0 ± 0.034	-0.0255 ± 0.018	0.0155 ± 0.013	0.025 ± 0.0099	-0.001 ± 0.033	-0.0055 ± 0.029	-0.005 ± 0.035	0.04 ± 0.0057	0.0105 ± 0.00071	0 ± 0.0071	0.0305 ± 0.029	-0.0025 ± 0.013	0.007 ± 0.065	0.021 ± 0.0071	0.0335 ± 0.08	0.046 ± 0.033	0.0855 ± 0.0021
HDF3CGF:CXCL10/IP-10	-0.032 ± 0.02	-0.06 ± 0.027	-0.175 ± 0.0021	0.007 ± 0.034	-0.008 ± 0.013	-0.006 ± 0.0042	-0.0035 ± 0.015	0.0105 ± 0.026	0.002 ± 0.011	-0.0005 ± 0.0078	-0.003	-0.0265 ± 0.052	-0.0125 ± 0.04	-0.022 ± 0.031	0.0055 ± 0.03	-0.026 ± 0.016	-0.0075 ± 0.018	-0.046 ± 0.021	-0.0325 ± 0.042	0.005	0.0035 ± 0.023	-0.0245 ± 0.0021	-0.0305 ± 0.044	-0.0535 ± 0.023	-0.215 ± 0.012
BE3C:CD54/ICAM-1	-0.017 ± 0.0014	0.0145 ± 0.018	-0.033 ± 0.014	0.0075 ± 0.0021	0.0105 ± 0.036	0.03 ± 0.025	0.0015 ± 0.0092	-0.003 ± 0.027	-0.001 ± 0.0028	-0.0075 ± 0.0021	0.005 ± 0.0042	-0.0105 ± 0.0078	-0.007 ± 0.0057	0.0095 ± 0.036	0.01 ± 0.0057	-0.019 ± 0.013	-0.006 ± 0.0085	-0.0145 ± 0.005	-0.04 ± 0.023	0.01 ± 0.0057	0.0025 ± 0.039	-0.0175 ± 0.0035	0.0105 ± 0.012	-0.003 ± 0.0085	-0.0095 ± 0.0035
BE3C:PAI-I	0.011 ± 0.0071	0.0005 ± 0.0035	-0.215 ± 0.017	-0.0205 ± 0.016	0.012 ± 0.035	-0.002 ± 0.035	-0.013 ± 0.0071	-0.003 ± 0.041	0.016 ± 0.033	0.007 ± 0.03	0.0205 ± 0.019	0.0135 ± 0.04	0.011 ± 0.051	-0.001 ± 0.0071	-0.0175 ± 0.011	-0.0125 ± 0.011	-0.005 ± 0.0014	0.011 ± 0.0085	0.0435 ± 0.016	-0.003 ± 0.0042	-0.056 ± 0.038	-0.003 ± 0.0042	-0.0315 ± 0.0035	-0.119 ± 0.016	-0.189 ± 0.0085
BT:B cell Proliferation	0.014 ± 0.024	0.04 ± 0.038	0.037 ± 0.017	-0.012 ± 0.0085	0.0335 ± 0.025	0.0115 ± 0.018	0.0545 ± 0.052	-0.006 ± 0.017	0.004 ± 0.0028	-0.027 ± 0.011	0.001 ± 0.017	-0.02 ± 0.031	0.002 ± 0.013	0.0095 ± 0.021	0.0155 ± 0.032	0.025 ± 0.033	0.0405 ± 0.066	0.031 ± 0.017	0.0625 ± 0.098	0.015 ± 0.03	-0.009 ± 0.035	0.042 ± 0.058	-0.0025 ± 0.0078	-0.0065 ± 0.0064	-0.085 ± 0.034

Record cards, from the list above. Order of values: level (log10) ([1]; 2200 nM) | level (log10) ([1]; 6700 nM) | level (log10) ([1]; 20000 nM) | level (log10) (Nonafluoropentanamide) | level (log10) (Tetrafluorosuccinic acid) | level (log10) [2] | level (log10) [3] | level (log10) ([4]; 740 nM) | level (log10) ([4]; 2200 nM) | level (log10) ([4]; 6700 nM) | level (log10) ([4]; 20000 nM) | level (log10) ([5]; 740 nM) | level (log10) ([5]; 2200 nM) | level (log10) (Octafluoroadipamide) | level (log10) [6] | level (log10) ([7]; 2200 nM) | level (log10) ([7]; 6700 nM) | level (log10) ([7]; 20000 nM) | level (log10) ([7]; 60000 nM) | level (log10) [8] | level (log10) [9] | level (log10) [10] | level (log10) (Perfluoropinacol; 2200 nM) | level (log10) (Perfluoropinacol; 6700 nM) | level (log10) (Perfluoropinacol; 20000 nM)
BE3C:CD54/ICAM-1 is listed as -0.017 ± 0.0014 | 0.0145 ± 0.018 | -0.033 ± 0.014 | 0.0075 ± 0.0021 | 0.0105 ± 0.036 | 0.03 ± 0.025 | 0.0015 ± 0.0092 | -0.003 ± 0.027 | -0.001 ± 0.0028 | -0.0075 ± 0.0021 | 0.005 ± 0.0042 | -0.0105 ± 0.0078 | -0.007 ± 0.0057 | 0.0095 ± 0.036 | 0.01 ± 0.0057 | -0.019 ± 0.013 | -0.006 ± 0.0085 | -0.0145 ± 0.005 | -0.04 ± 0.023 | 0.01 ± 0.0057 | 0.0025 ± 0.039 | -0.0175 ± 0.0035 | 0.0105 ± 0.012 | -0.003 ± 0.0085 | -0.0095 ± 0.0035
HDF3CGF:CXCL10/IP-10 is listed as -0.032 ± 0.02 | -0.06 ± 0.027 | -0.175 ± 0.0021 | 0.007 ± 0.034 | -0.008 ± 0.013 | -0.006 ± 0.0042 | -0.0035 ± 0.015 | 0.0105 ± 0.026 | 0.002 ± 0.011 | -0.0005 ± 0.0078 | -0.003 | -0.0265 ± 0.052 | -0.0125 ± 0.04 | -0.022 ± 0.031 | 0.0055 ± 0.03 | -0.026 ± 0.016 | -0.0075 ± 0.018 | -0.046 ± 0.021 | -0.0325 ± 0.042 | 0.005 | 0.0035 ± 0.023 | -0.0245 ± 0.0021 | -0.0305 ± 0.044 | -0.0535 ± 0.023 | -0.215 ± 0.012

From the supplement of paper PMC10331698
